# The list shows a part of the results. For some of these results: Construct or isoform of the protein are uncertain.
# Tests used:
# Assay in all cases: protein microarray (ProtoArray v5.0), streptavidin-Alexa Fluor 647
# Settings in all cases: 3'-biotin; 20 mM Tris (pH 7.5), 5 mM MgCl2, 100 mM KCl, 0.1% Tween-20, A/T-rich and random oligonucleotide blockers; temperature not stated; high values mean tight binding
# [1] = system: Vesicle-trafficking protein SEC22b (human)
# [2] = system: Visinin-like protein 1 (human)
# [3] = system: Voltage-dependent L-type calcium channel subunit beta-1 (human)
# [4] = system: WAS protein family homolog 1 (human)
# WBP2 = target: T1, WBP2 (UniProt Q969T9)
# T1 sequence: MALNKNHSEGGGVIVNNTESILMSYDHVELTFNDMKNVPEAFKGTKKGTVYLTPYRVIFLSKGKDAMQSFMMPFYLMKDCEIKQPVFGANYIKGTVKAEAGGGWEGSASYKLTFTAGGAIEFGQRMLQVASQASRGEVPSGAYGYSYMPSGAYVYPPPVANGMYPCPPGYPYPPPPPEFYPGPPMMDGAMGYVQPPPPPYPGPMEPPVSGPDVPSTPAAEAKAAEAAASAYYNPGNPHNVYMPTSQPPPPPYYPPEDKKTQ
# [5] = system: WD repeat-containing protein 55 (human)
# WDFY1 (human) = system: WDFY1 (human)
# WDR1 (human) = system: WDR1 (human)
# WDR18 = target: T2, WDR18 (UniProt Q9BV38)
# T2 sequence: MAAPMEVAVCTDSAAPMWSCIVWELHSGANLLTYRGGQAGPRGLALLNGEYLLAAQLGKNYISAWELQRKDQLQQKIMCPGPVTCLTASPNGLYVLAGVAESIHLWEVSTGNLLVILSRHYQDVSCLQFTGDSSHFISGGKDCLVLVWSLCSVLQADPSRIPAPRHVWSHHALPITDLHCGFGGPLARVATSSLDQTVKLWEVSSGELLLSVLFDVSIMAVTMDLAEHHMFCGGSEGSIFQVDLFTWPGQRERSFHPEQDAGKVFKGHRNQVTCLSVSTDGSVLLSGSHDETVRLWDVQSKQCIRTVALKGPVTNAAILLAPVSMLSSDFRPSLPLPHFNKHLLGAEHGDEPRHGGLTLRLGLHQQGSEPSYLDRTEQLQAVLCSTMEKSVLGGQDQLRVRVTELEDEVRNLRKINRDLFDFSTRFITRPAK
# WDR24 (human) = system: WDR24 (human)
sequence,measurement,setting,value
GGGGACAGGGGTATGGGGAGGGG [G4-3 biotinylated (CtG)],binding signal,[1],-0.331 z-score
same,binding signal,[2],-0.334 z-score
same,binding signal,[3],3.14 z-score
same,binding signal,[4],-0.349 z-score
same,binding signal,WBP2,-0.332 z-score
same,binding signal,[5],-0.322 z-score
same,binding signal,WDFY1 (human),-0.321 z-score
same,binding signal,WDR1 (human),-0.318 z-score
same,binding signal,WDR18,-0.328 z-score
same,binding signal,WDR24 (human),-0.314 z-score

# 2 entries drawn at random from those above, as already listed:
sequence,measurement,setting,value
GGGGACAGGGGTATGGGGAGGGG [G4-3 biotinylated (CtG)],binding signal,[5],-0.322 z-score
same,binding signal,WDR24 (human),-0.314 z-score

# — PMC5996148
